The results in this text go back to paper PMC13453871.

No constants are given. Whether binding was seen depends on the method and setting. In cells and extracts the contact can be indirect. A yes stands for co-enrichment or nearness to the bait. Other partners may have been found.

The assay deals with T1, annexin A1 (UniProt P04083).
T1 sequence: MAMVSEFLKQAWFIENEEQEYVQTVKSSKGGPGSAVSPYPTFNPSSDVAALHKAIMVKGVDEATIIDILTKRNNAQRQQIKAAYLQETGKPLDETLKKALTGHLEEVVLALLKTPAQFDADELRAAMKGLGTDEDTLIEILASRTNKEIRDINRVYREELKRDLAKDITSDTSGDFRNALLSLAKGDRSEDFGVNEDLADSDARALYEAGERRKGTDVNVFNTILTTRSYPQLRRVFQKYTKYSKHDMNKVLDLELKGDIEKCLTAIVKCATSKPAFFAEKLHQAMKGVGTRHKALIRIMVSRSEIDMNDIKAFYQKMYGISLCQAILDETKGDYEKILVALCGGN
Nature of the assay: affinity purification with mass spectrometry; mass spectrometry (Fig. S2G); bait, cells and conditions not told in the main text.

B1: thioredoxin (protein, UniProt P10599 1-105)
chain: MVKQIESKTAFQEALDAAGDKLVVVDFSATWCGPCKMIKPFFHSLSEKYSNVIFLEVDVDDCQDVASECEVKCMPTFQFFKKGQKVGEFSGANKEKLEATINELV
For the molecule B1, the binding result is “binds”.
